PubChem BioAssay AID330 (DTP/NCI, 2004)
The list shows only some results of the screen, not a fair sample: it is rich in T/C values a quarter to a half above the control, in often repeated tests (any T/C) and in doses without a T/C. Other doses and runs of a compound stand elsewhere. T/C gives the treated animals as a percentage of the vehicle group. Some doses have a count of surviving animals in place of a T/C: the source files T/C as zero there, which appears to mark a toxic dose or a test without result, not a measured value. Some doses without a T/C left all or most animals alive at the check, yet need not have been tolerated: the source hardly ever lists a survival T/C far under the control, and the zero likely stands for such cases as well. Survivors were counted at the toxicity check, usually on the fifth day, unless a day is given; later deaths do not show. Schedules are NCI's codes, read here as Q, the interval in days (D) or hours (H), X, the number of doses. Signs of the kind (2×) give the number of equal values in this list. Some entries hold several experiments; the values are given in rising order. Where survival is the endpoint, this PubChem deposit counts one and a half times the control or more as active, and values a quarter to a half above the control carry no call in these data; other NCI protocols may use other cut-offs. Some T/C values are followed by the survivors on the day toxicity was checked, most often the fifth; where none is given, no animal had died by that day.

System: P388 leukemia ip, CD2F1 mice, survival T/C
Assay: NCI In Vivo Anticancer Drug Screen. Data for tumor model P388 Leukemia (intraperitoneal) in CD2F1 (CDF1) mice
Details: T/C endpoint: median survival time, higher T/C = longer survival
[1] = dose: 100.0 mg/kg/injection, schedule: Q01DX005 (ip), vehicle: Klucel (hydroxypropylcellulose) (HPC)
[2] = dose: 200.0 mg/kg/injection, schedule: Q01DX005 (ip), vehicle: Klucel (hydroxypropylcellulose) (HPC)
[3] = dose: 240.0 mg/kg/injection, schedule: Q01DX005 (ip), vehicle: Klucel (hydroxypropylcellulose) (HPC)
[4] = dose: 200.0 mg/kg/injection, schedule: Q01DX009 (ip), vehicle: Klucel (hydroxypropylcellulose) (HPC)
[5] = dose: 100.0 mg/kg/injection, schedule: Q01DX005 (ip), vehicle: saline with Tween-80
[6] = dose: 200.0 mg/kg/injection, schedule: Q01DX005 (ip), vehicle: saline with Tween-80
[7] = dose: 200.0 mg/kg/injection, schedule: Q01DX005 (ip), vehicle: saline
[8] = dose: 25.0 mg/kg/injection, schedule: Q01DX009 (ip), vehicle: saline with Tween-80
[9] = dose: 400.0 mg/kg/injection, schedule: Q04DX003 (ip), vehicle: Klucel (hydroxypropylcellulose) (HPC)
[10] = dose: 240.0 mg/kg/injection, schedule: Q01DX005 (ip), vehicle: saline with Tween-80
[11] = dose: 100.0 mg/kg/injection, schedule: Q01DX009 (ip), vehicle: saline with Tween-80
[12] = dose: 100.0 mg/kg/injection, schedule: Q04DX003 (ip), vehicle: Klucel (hydroxypropylcellulose) (HPC)
[13] = dose: 3.13 mg/kg/injection, schedule: Q01DX009 (ip), vehicle: Klucel (hydroxypropylcellulose) (HPC)
[14] = dose: 6.25 mg/kg/injection, schedule: Q01DX009 (ip), vehicle: Klucel (hydroxypropylcellulose) (HPC)

SMILES: CC(C)c1ccc(C(Cc2ccccc2)N(CCO)CCO)cc1 (centres undefined)
- survivor count [1]: 2 of 5
- survivor count [2]: 0 of 5

SMILES: CCOc1c(N=Nc2ccc(Cl)cc2Cl)c(C)nn1C(N)=S
- survivor count (dose: 60.0 mg/kg/injection, schedule: Q01DX005 (ip), vehicle: Klucel (hydroxypropylcellulose) (HPC)): 0 of 6 and 2 of 6
- survivor count (dose: 120.0 mg/kg/injection, schedule: Q01DX005 (ip), vehicle: Klucel (hydroxypropylcellulose) (HPC)): 0 of 6
- survivor count [3]: 0 of 6

SMILES: NCCN(Cc1ccccc1)C1CC1
- survivor count (dose: 200.0 mg/kg/injection, schedule: Q01DX009 (ip), vehicle: saline): 0 of 6

SMILES: O=c1[nH]c2ccccc2[nH]1
- survivor count (dose: 100.0 mg/kg/injection, schedule: Q01DX009 (ip), vehicle: suspension in saline): 6 of 6
- survivor count [4]: 6 of 6
- survivor count (dose: 400.0 mg/kg/injection, schedule: Q01DX009 (ip), vehicle: Klucel (hydroxypropylcellulose) (HPC)): 4 of 6

SMILES: O=C1CC2(C(=O)N1CN1CCCCC1)c1ccccc1-c1ccccc12
- T/C [4]: 126 % of control

SMILES: CCCCOP(=O)(O)OCCCC.[Th]
- survivor count (dose: 100.0 mg/kg/injection, schedule: Q01DX001 (ip), vehicle: saline with Tween-80): 6 of 6
- survivor count (dose: 200.0 mg/kg/injection, schedule: Q01DX001 (ip), vehicle: saline with Tween-80): 6 of 6

SMILES: CCN(CC)CCOCCc1ccccc1
- survivor count [5]: 2 of 6
- survivor count [6]: 0 of 6

SMILES: Cc1nn(C)pc1P(C)(=S)n1nc(N(C)C)np1 (centres undefined)
- survivor count [2]: 4 of 6

SMILES: CCN(CC)CCSCCCNc1cc(OC)cc2cccnc12
- survivor count (dose: 100.0 mg/kg/injection, schedule: Q01DX005 (ip), vehicle: saline): 2 of 5
- survivor count [7]: 0 of 5

SMILES: CCOc1c(Cl)cc(Cl)cc1C(c1ccccc1S(=O)(=O)O)c1cc(Cl)cc(Cl)c1OCC
- survivor count [8]: 6 of 6

SMILES: O=S(=O)(CBr)OCCCl
- T/C [5]: 128 % of control

SMILES: CNC(=O)OCc1c(COC(=O)NC)c(C(F)(F)F)n2c1CCC2
- survivor count [4]: 5 of 6

SMILES: COC(=O)NC(NC(=O)OC)C(F)(F)C(NC(=O)OC)NC(=O)OC
- survivor count [3]: 1 of 6

SMILES: NC(CS/C(Cl)=C/Cl)C(=O)O (centres undefined)
- T/C (dose: 18.0 mg/kg/injection, schedule: Q01DX009 (ip), vehicle: saline with Tween-80): 129 % of control
- survivor count (dose: 40.0 mg/kg/injection, schedule: Q01DX009 (ip), vehicle: saline with Tween-80): 4 of 6

SMILES: CCCCCCCCCCCC(=O)NCCc1ccc(O)c(O)c1
- T/C [9]: 126 % of control

SMILES: COc1ccc(-c2c(-c3ccccc3)c(=O)oc3cc(OC)ccc23)cc1
- survivor count (dose: 60.0 mg/kg/injection, schedule: Q01DX005 (ip), vehicle: saline with Tween-80): 6 of 6
- survivor count [10]: 4 of 4 and 6 of 6

SMILES: CN(C)c1ncnc2c1ncn2C1CCCCO1 (centres undefined)
- survivor count [1]: 2 of 5
- survivor count [2]: 2 of 5

SMILES: [Cu+].[NH-]CCCN=Cc1ccccc1O
- survivor count (dose: 100.0 mg/kg/injection, schedule: Q01DX001 (ip), vehicle: saline sonified): 3 of 6

SMILES: O=C(NCCF)Oc1ccc([N+](=O)[O-])cc1
- survivor count (dose: 37.5 mg/kg/injection, schedule: Q01DX005 (ip), vehicle: Klucel (hydroxypropylcellulose) (HPC)): 0 of 6
- survivor count (dose: 50.0 mg/kg/injection, schedule: Q01DX005 (ip), vehicle: Klucel (hydroxypropylcellulose) (HPC)): 3 of 6 and 4 of 6
- survivor count [1]: 1 of 6
- survivor count [2]: 0 of 6

SMILES: Oc1cccc(N2CCN(c3cccc(O)c3)CC2)c1
- survivor count [3]: 6 of 6

SMILES: CCC/C(=N\NC(=S)N(C)C)c1ccccn1
- survivor count [5]: 3 of 6
- survivor count [6]: 0 of 6

SMILES: Cc1cc(N=Nc2ccc(NC(=O)c3ccc(N)cc3)cc2C)ccc1N=Nc1ccc2c(O)c(N=Nc3ccc(S(=O)(=O)O)cc3)c(S(=O)(=O)O)cc2c1
- survivor count [7]: 2 of 6

SMILES: N#C/C(C(N)=O)=C(\C(=O)c1ccccc1)c1ccccc1
- survivor count [6]: 1 of 6

SMILES: O=C1Nc2ccccc2C(c2ccccc2)=NC1C1(O)CCCCC1 (centres undefined)
- survivor count (dose: 50.0 mg/kg/injection, schedule: Q01DX005 (ip), vehicle: saline with Tween-80): 6 of 6
- survivor count [5]: 6 of 6
- survivor count [6]: 6 of 6

SMILES: CC(=O)CC(=O)c1ccc(C)cc1.CC(=O)CC(=O)c1ccc(C)cc1.[Cu]
- survivor count [11]: 0 of 6 and 3 of 6
- survivor count (dose: 200.0 mg/kg/injection, schedule: Q01DX009 (ip), vehicle: saline with Tween-80): 6 of 6

SMILES: CC(Cl)CN(Cc1cc(O)c(CN(CC(C)Cl)CC(C)Cl)cc1O)CC(C)Cl (centres undefined)
- T/C [12]: 127 % of control
- T/C [9]: 136 % of control

SMILES: C(=N\NC1=NCCN1)/c1ccc(-c2cn3cc(/C=N/NC4=NCCN4)ccc3n2)cc1
- T/C (dose: 120.0 mg/kg/injection, schedule: Q01DX005 (ip), vehicle: saline with Tween-80): 130 % of control [5 of 6 alive]
- survivor count [10]: 1 of 6

SMILES: O=C1C=C(N(CCCl)CCCl)C(=O)C=C1N(CCCl)CCCl
- T/C [12]: 142 % of control [5 of 6 alive]

SMILES: CC(=O)OCC(=O)[C@@]12OC(C)(C)O[C@@H]1C[C@H]1[C@@H]3CC(C=O)=C4C=C(OCCCl)CC[C@]4(C)[C@@]3(F)[C@@H](O)C[C@@]12C
- T/C [13]: 135 % of control
- T/C [14]: 135 % of control

SMILES: CC1CCP(c2ccccc2)C1 (centres undefined)
- survivor count (dose: 400.0 mg/kg/injection, schedule: Q01DX001 (ip), vehicle: saline with Tween-80): 2 of 6

SMILES: COc1cc(C(C)c2cc3c(cc2OC)OCO3)ccc1OCc1ccccc1 (centres undefined)
- survivor count (dose: 100.0 mg/kg/injection, schedule: Q01DX005 (ip), vehicle: distilled water + Tween-80): 6 of 6
- survivor count (dose: 200.0 mg/kg/injection, schedule: Q01DX005 (ip), vehicle: distilled water + Tween-80): 6 of 6

SMILES: c1csc(SSc2nccs2)n1
- survivor count (dose: 200.0 mg/kg/injection, schedule: Q04DX002 (ip), vehicle: saline with Tween-80): 3 of 6
- survivor count (dose: 400.0 mg/kg/injection, schedule: Q04DX002 (ip), vehicle: saline with Tween-80): 0 of 6

SMILES: COC1=CC(=O)C(C(c2ccc(OC)cc2)N2CCOCC2)=CC1=O (centres undefined)
- survivor count [5]: 0 of 6
- survivor count [6]: 0 of 6

SMILES: N=C(N)c1ccc2[nH]c(/C=C/c3cc4ccc(C(=N)N)cc4o3)cc2c1
- T/C (dose: 12.5 mg/kg/injection, schedule: Q04DX003 (ip), vehicle: suspension in saline): 134 % of control
- T/C (dose: 25.0 mg/kg/injection, schedule: Q04DX003 (ip), vehicle: suspension in saline): 142 % of control
- T/C (dose: 50.0 mg/kg/injection, schedule: Q04DX003 (ip), vehicle: suspension in saline): 147 % of control [5 of 6 alive]
- survivor count (dose: 100.0 mg/kg/injection, schedule: Q04DX003 (ip), vehicle: suspension in saline): 4 of 6
- survivor count (dose: 200.0 mg/kg/injection, schedule: Q04DX003 (ip), vehicle: suspension in saline): 2 of 6
- survivor count (dose: 400.0 mg/kg/injection, schedule: Q04DX003 (ip), vehicle: suspension in saline): 0 of 6

SMILES: COc1ccc(/C=C/C(=O)c2c(N)n(C)c(=O)n(C)c2=O)cc1
- survivor count [2]: 6 of 6

SMILES: c1onc2cc3c(cc12)OCO3
- T/C (dose: 0.78 mg/kg/injection, schedule: Q01DX009 (ip), vehicle: Klucel (hydroxypropylcellulose) (HPC)): 125 % of control
- T/C [13]: 130 % of control
- survivor count [14]: 6 of 6

SMILES: COc1ccc(/C=C/c2ccc3ccccc3[n+]2C)cc1
- T/C (dose: 16.5 mg/kg/injection, schedule: Q01DX009 (ip), vehicle: saline with Tween-80): 129 % of control
- T/C [8]: 127 % of control
- T/C (dose: 37.5 mg/kg/injection, schedule: Q01DX009 (ip), vehicle: saline with Tween-80): 131 % of control
- survivor count (dose: 50.0 mg/kg/injection, schedule: Q01DX009 (ip), vehicle: saline with Tween-80): 3 of 6
- survivor count [11]: 0 of 6

SMILES: CC([NH-])CC(C)[NH-].O=[N+]([O-])O.O=[N+]([O-])O.[Pt+2] (centres undefined)
- T/C (dose: 6.25 mg/kg/injection, schedule: Q04DX002 (ip), vehicle: saline): 140 % of control
- survivor count (dose: 25.0 mg/kg/injection, schedule: Q04DX002 (ip), vehicle: saline): 6 of 6 (2×)
